The supplement of paper PMC3334620
In all, about 33,000 sequences were measured (“E-score (-0.5 to 0.5)”: median about -0.0034, highest 2% from about 0.25 on). The list shows a part of the results.

Molecular target: T1, Yap3 (UniProt P38749)
T1 sequence: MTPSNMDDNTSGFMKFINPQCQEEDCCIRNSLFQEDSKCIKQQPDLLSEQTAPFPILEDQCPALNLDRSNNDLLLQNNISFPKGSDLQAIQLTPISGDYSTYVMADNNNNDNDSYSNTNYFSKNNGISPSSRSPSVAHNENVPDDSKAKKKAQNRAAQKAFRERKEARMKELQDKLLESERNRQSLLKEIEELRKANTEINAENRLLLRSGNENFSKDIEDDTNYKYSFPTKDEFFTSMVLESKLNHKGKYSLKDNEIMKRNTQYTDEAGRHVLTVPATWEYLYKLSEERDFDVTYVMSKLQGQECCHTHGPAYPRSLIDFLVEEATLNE
Assay: PBM E-score (8-mer binding enrichment) (E-score (-0.5 to 0.5)); higher = stronger / more preferred TF binding
Conditions: protein concentration: 100 nM; construct: GST-full length
Method in brief: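 Universal all-10-mer Agilent arrays, fresh or stripped once, were converted to double-stranded form by primer extension. GST-tagged yeast transcription factors from PURExpress in vitro transcription/translation, full-length or DNA-binding domain only, were applied at about 100-200 nM and detected with fluorescent anti-GST. After masliner normalisation, the Universal PBM Analysis Suite scored each ungapped eight-base word together with its reverse complement by E-score.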

Compared with AAATCACG, CCCTCAGC is lower in “PBM E-score” value: 0.158 for the first, -0.209 for the second.

Going from CCCGCGGC to ATCCCTGG, the “PBM E-score” value falls from -0.0921 to -0.265.

Going from CGGGACTC to CTTATTCA, the “PBM E-score” value rises from -0.217 to 0.106.

Compared with TAATAAGA, ATTAAAAT is higher in “PBM E-score” value: 0.136 for the first, 0.169 for the second.

Going from AGAAATAT to GACGTGGC, the “PBM E-score” value falls from 0.162 to -0.217.

Compared with CGGAGTAA, CGTCGAGA is higher in “PBM E-score” value: -0.0385 for the first, 0.042 for the second.

Compared with AATAACTA, GACGATCA is lower in “PBM E-score” value: 0.0853 for the first, -0.0887 for the second.

Compared with GTCATAAA, ACGTCGCG is lower in “PBM E-score” value: 0.221 for the first, -0.026 for the second.

Compared with AAACACGC, GACCTCTA is lower in “PBM E-score” value: 0.189 for the first, -0.246 for the second.

First: CAAGTAGG
Second: CAACTCCA
The “PBM E-score” value of the first is lower: -0.053 for the first, 0.0135 for the second.

Compared with AATTGGAT, GCTTTGGA is lower in “PBM E-score” value: 0.168 for the first, 0.0763 for the second.

First: AACATCGC
Second: AGGATAAT
The “PBM E-score” value of the first is lower: -0.141 for the first, 0.186 for the second.

Compared with ATGCAAGA, GAAGTCTA is lower in “PBM E-score” value: 0.0402 for the first, -0.109 for the second.

Going from ACCAGGCG to TGTGCGAA, the “PBM E-score” value rises from -0.133 to -0.0729.

Going from AACATCTT to AGCATCGA, the “PBM E-score” value rises from -0.135 to 0.145.

First: CCATTAAG
Second: AAAACATT
The “PBM E-score” value of the first is lower: -0.141 for the first, 0.184 for the second.

First: CGGTAGTC
Second: TCCCACAA
The “PBM E-score” value of the first is lower: -0.15 for the first, 0.0374 for the second.

Going from GCAATGAC to GAACTAAC, the “PBM E-score” value rises from -0.147 to 0.0778.

Going from CGTCGGGC to CTTATCCC, the “PBM E-score” value rises from -0.331 to -0.0627.

Going from AATACTCC to CAGTGCCC, the “PBM E-score” value falls from -0.0908 to -0.192.

First: GGTCAGAC
Second: ATCCATCA
The “PBM E-score” value of the first is lower: -0.157 for the first, 0.0452 for the second.

Going from CCTTTCCA to CGATAACC, the “PBM E-score” value rises from -0.0109 to 0.133.

Going from GCCTCTAA to CGGTTATA, the “PBM E-score” value rises from 0.0367 to 0.0465.

Compared with GAAGCGTA, GACCTTTA is lower in “PBM E-score” value: 0.102 for the first, 0.0224 for the second.

Going from GCACGGGA to CTGCCCGC, the “PBM E-score” value rises from -0.139 to -0.054.

First: ACTGAGGC
Second: AATCTATC
The “PBM E-score” value of the first is lower: 0.0378 for the first, 0.132 for the second.

Compared with AACTGGAT, GATGTCTA is lower in “PBM E-score” value: 0.0502 for the first, -0.122 for the second.

Going from AATGGAAT to CCTTTACG, the “PBM E-score” value falls from 0.275 to 0.196.

Going from CTGAAGCC to ATAAAGTG, the “PBM E-score” value rises from -0.0791 to 0.271.

Compared with CCTAGGAA, CAATGTGG is higher in “PBM E-score” value: 0.0329 for the first, 0.0977 for the second.

First: ACTAGATA
Second: ATAGTTTC
The “PBM E-score” value of the first is higher: 0.154 for the first, 0.0469 for the second.

Going from CTGACTCA to CAGTACGC, the “PBM E-score” value falls from 0.193 to -0.0471.

Going from GGCGAGAC to ATTTTGTC, the “PBM E-score” value rises from -0.0881 to 0.121.

Going from GATCTGAA to ACGCTAAA, the “PBM E-score” value rises from -0.131 to 0.0669.

Compared with GGCCATCA, ACCTTCAT is higher in “PBM E-score” value: 0.00743 for the first, 0.0296 for the second.

Compared with AAGTTATT, CAGTCGAA is lower in “PBM E-score” value: 0.174 for the first, -0.0956 for the second.

First: ACTTTTTA
Second: TGCCCTAA
The “PBM E-score” value of the first is higher: 0.217 for the first, -0.0308 for the second.

First: AAGATAAC
Second: CGGTGTCC
The “PBM E-score” value of the first is higher: 0.111 for the first, -0.183 for the second.

Compared with ACGTAGCT, GCAGCGCC is lower in “PBM E-score” value: -0.0319 for the first, -0.127 for the second.

First: CTGGGTGA
Second: GCAACGCA
The “PBM E-score” value of the first is higher: -0.117 for the first, -0.299 for the second.

Compared with ATCGTAAA, GGCGTGTA is lower in “PBM E-score” value: 0.0157 for the first, -0.062 for the second.

Going from CACCTTTC to TCACCCGA, the “PBM E-score” value falls from 0.00551 to -0.0121.

Going from AAGAGCGG to AGAGCAAT, the “PBM E-score” value falls from 0.0316 to -0.0752.

First: CGGTACTC
Second: ATGGTCCC
The “PBM E-score” value of the first is lower: -0.129 for the first, -0.109 for the second.

Going from GACATTGC to ATATTTAA, the “PBM E-score” value rises from -0.0542 to 0.339.

First: CGGGCCAA
Second: CACTAAGA
The “PBM E-score” value of the first is lower: -0.174 for the first, -0.0286 for the second.

Compared with ATAGCTCA, AACATAGT is higher in “PBM E-score” value: 0.0139 for the first, 0.111 for the second.

First: ATCCTGTC
Second: GCATAAAC
The “PBM E-score” value of the first is lower: -0.0189 for the first, 0.14 for the second.

Compared with CTAAGTAC, AAGAGGAC is lower in “PBM E-score” value: 0.016 for the first, -0.0595 for the second.

Going from CACATCAC to TCAGACGA, the “PBM E-score” value rises from 0.00734 to 0.0132.

Going from AGCTGATA to AAAAAGAC, the “PBM E-score” value falls from 0.203 to 0.153.

Going from ACGCTTAA to ACACCAGC, the “PBM E-score” value falls from 0.00482 to -0.0881.

Compared with GCGCAAGC, ACTCGGTC is higher in “PBM E-score” value: -0.192 for the first, -0.0681 for the second.

First: TAGACTCA
Second: AGGGGACC
The “PBM E-score” value of the first is higher: -0.093 for the first, -0.315 for the second.

For CGCTTTGA, the “PBM E-score” value was 0.0787.
